# The other results are listed elsewhere or left out. The calls rarely recur for the same compound in another form.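 Kinases, fused to nanoluciferase, were expressed in K562 cells; luminescence was measured every 4 h from 2 to 18 h as percent of control (DMSO = 100%, positive control = 0%). A time point is decreased if signal falls significantly (2 sigma). Hits were called by the authors by a rule that is not shown; the count of time points alone does not decide it.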
# The chains behind the UniProt entries cited, without tags or fusion partners. Where a name states a change or a piece, a line headed by the entry shows the natural chain unless it says otherwise.
# UniProt P50613: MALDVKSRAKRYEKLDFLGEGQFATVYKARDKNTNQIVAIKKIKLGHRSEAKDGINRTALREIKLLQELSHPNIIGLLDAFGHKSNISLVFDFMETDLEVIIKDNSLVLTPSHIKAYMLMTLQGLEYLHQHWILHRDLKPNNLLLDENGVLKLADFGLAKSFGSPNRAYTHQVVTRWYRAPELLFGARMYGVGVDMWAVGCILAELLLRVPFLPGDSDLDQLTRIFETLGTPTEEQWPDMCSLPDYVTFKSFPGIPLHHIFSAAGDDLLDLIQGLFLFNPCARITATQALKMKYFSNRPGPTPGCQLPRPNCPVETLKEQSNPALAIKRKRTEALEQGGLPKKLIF
# UniProt P50750, whole entry: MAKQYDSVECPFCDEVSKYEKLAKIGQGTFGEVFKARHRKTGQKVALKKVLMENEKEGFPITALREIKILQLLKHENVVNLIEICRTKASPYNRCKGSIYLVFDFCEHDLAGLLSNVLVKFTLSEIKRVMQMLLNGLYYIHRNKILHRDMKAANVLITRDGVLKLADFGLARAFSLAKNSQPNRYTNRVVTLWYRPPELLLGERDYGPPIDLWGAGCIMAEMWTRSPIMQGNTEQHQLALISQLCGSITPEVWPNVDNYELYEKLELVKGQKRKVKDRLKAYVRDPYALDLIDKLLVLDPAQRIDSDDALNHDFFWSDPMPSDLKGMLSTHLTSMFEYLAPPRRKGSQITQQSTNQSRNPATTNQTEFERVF
# UniProt O96017, whole entry: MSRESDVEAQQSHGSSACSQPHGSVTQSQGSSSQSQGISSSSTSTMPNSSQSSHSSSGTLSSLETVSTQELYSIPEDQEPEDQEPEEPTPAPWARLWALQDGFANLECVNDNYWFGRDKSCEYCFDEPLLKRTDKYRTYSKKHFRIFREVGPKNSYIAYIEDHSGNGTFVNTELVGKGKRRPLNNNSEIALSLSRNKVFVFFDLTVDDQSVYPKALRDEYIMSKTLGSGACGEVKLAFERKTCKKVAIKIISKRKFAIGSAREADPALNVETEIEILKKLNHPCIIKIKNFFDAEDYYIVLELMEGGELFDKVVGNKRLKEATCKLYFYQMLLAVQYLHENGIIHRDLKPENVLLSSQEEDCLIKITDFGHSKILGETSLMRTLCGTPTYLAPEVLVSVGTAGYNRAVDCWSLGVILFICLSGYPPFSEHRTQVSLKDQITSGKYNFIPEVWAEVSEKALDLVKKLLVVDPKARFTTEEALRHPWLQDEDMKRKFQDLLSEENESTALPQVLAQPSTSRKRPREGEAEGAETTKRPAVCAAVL
# UniProt P07333, whole entry: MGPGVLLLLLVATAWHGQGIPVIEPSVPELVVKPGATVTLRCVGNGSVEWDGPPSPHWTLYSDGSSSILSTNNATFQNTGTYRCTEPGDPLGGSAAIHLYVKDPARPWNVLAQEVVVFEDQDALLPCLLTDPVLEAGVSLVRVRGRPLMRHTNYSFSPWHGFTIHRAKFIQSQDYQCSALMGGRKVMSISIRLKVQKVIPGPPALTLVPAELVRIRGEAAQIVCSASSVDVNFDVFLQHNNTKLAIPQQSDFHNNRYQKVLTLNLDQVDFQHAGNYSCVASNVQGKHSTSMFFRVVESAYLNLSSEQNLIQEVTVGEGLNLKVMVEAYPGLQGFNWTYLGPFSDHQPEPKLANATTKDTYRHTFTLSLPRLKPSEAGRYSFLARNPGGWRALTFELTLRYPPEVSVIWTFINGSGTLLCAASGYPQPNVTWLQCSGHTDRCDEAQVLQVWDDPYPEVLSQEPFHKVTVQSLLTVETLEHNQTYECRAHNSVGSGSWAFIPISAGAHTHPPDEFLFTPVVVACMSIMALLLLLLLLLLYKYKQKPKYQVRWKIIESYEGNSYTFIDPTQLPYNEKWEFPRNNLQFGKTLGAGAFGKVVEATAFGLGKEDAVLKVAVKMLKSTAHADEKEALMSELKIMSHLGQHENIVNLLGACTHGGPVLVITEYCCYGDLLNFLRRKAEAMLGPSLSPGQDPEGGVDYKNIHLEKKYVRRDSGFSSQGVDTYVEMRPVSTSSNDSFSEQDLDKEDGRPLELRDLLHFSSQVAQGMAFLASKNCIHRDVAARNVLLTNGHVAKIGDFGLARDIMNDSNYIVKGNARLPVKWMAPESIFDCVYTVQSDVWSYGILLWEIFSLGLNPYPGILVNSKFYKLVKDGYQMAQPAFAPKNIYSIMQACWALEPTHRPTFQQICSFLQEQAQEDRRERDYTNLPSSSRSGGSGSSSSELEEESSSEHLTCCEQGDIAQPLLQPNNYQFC
# UniProt P41240: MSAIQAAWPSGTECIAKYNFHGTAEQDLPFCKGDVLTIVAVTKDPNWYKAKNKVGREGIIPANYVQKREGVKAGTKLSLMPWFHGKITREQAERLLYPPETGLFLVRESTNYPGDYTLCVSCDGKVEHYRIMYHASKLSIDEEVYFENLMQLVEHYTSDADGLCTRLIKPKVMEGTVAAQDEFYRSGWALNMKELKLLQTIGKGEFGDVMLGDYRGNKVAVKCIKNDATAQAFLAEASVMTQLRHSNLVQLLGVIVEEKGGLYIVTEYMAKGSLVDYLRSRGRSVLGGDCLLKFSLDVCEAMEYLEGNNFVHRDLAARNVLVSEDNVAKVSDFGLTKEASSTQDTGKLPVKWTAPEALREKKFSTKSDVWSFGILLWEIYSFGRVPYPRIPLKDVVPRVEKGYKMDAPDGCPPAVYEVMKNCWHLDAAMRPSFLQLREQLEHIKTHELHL
# UniProt P48729: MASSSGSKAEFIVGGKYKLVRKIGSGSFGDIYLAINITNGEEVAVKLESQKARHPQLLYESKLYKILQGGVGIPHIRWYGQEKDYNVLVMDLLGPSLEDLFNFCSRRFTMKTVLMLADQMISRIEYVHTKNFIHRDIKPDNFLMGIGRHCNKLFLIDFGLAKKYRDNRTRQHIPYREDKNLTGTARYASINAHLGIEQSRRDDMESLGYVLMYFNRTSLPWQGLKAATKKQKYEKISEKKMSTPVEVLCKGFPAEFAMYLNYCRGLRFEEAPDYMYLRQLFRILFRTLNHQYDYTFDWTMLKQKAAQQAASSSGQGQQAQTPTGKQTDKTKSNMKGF
# UniProt P48730: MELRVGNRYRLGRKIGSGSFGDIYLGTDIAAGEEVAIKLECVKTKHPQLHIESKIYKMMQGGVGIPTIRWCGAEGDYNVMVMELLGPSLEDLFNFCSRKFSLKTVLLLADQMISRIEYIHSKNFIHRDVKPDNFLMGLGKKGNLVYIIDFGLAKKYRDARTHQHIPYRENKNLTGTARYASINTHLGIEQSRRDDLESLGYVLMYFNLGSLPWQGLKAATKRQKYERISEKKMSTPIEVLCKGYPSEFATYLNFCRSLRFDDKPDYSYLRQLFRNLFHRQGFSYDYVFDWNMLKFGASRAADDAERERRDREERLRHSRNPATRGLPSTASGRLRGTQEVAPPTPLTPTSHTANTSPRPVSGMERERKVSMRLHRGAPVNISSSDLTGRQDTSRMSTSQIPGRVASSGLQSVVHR
# UniProt P21860, whole entry: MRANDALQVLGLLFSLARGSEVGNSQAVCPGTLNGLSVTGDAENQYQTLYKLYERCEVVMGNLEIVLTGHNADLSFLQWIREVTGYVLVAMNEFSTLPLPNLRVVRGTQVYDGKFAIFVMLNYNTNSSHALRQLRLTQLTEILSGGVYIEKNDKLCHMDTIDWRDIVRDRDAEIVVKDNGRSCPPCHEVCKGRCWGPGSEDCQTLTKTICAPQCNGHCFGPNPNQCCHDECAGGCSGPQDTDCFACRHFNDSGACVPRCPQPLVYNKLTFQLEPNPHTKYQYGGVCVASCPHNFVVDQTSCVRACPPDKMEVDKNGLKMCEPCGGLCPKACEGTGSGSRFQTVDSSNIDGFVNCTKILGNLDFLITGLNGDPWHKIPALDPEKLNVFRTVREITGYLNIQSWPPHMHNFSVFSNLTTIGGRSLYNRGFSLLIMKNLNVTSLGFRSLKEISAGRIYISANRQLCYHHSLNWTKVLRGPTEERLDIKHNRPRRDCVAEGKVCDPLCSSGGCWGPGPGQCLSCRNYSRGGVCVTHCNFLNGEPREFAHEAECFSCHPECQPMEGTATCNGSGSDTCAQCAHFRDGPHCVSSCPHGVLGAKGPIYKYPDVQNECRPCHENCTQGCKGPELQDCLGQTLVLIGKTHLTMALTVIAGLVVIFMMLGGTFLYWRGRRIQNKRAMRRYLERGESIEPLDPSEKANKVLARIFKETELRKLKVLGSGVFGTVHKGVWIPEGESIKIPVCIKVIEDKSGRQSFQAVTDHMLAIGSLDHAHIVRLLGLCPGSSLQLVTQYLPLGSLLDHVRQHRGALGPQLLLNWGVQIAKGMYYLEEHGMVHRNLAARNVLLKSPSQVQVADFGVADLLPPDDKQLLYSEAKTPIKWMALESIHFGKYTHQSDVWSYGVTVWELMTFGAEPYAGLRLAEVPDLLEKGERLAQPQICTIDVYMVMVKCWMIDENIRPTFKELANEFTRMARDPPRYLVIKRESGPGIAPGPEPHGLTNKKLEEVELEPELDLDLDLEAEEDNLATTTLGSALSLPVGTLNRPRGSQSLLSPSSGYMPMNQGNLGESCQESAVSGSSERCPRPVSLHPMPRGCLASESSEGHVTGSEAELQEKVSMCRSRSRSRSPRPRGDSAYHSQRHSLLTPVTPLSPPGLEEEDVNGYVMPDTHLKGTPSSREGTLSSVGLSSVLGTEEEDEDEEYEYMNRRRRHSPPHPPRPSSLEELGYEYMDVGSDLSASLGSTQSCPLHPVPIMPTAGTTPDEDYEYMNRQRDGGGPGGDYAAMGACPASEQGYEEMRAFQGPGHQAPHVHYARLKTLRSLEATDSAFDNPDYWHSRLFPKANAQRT
# UniProt Q15303, whole entry R711C: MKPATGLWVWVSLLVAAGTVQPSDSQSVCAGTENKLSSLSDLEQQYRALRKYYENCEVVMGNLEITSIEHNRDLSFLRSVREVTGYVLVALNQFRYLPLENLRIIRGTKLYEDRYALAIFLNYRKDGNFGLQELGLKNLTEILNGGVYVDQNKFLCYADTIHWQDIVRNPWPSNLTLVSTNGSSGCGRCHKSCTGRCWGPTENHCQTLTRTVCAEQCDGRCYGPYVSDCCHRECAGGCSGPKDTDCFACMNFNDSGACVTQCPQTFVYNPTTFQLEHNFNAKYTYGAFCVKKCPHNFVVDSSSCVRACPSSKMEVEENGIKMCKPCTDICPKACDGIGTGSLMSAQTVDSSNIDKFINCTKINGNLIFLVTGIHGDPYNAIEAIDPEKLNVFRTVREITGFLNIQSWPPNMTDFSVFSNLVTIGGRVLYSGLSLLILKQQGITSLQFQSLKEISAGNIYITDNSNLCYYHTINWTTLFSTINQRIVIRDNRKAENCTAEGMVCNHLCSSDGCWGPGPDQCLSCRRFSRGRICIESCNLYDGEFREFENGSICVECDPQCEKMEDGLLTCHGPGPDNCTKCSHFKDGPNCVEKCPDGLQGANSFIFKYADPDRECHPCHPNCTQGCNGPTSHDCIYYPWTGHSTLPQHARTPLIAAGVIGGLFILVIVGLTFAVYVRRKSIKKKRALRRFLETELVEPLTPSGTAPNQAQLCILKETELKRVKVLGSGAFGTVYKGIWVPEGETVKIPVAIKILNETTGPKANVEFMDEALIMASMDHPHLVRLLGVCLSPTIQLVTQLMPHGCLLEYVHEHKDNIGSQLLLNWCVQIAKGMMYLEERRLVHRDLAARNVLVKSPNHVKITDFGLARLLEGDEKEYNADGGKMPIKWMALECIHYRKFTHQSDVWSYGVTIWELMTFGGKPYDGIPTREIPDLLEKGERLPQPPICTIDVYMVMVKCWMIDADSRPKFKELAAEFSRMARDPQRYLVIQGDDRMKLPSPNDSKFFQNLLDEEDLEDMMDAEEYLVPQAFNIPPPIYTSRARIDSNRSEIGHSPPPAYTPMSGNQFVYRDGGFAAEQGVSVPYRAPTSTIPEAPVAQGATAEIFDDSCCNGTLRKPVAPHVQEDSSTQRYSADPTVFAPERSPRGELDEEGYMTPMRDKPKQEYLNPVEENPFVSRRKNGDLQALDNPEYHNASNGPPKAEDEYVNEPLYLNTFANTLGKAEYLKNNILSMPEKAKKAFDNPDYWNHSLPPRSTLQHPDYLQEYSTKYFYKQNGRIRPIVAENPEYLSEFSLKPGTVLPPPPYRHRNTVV
# Assays:
# Assay in all cases: kinase-Nluc reporter destabilization hit call (1 = scored as downregulated) (binary); higher = compound decreases kinase abundance
# Conditions in all cases: K562; 2-18 h
# CDK7 = CDK7 (UniProt P50613)
# CDK9 = CDK9 (UniProt P50750)
# CHEK2 = CHEK2 (UniProt O96017)
# CSF1R = CSF1R (UniProt P07333)
# CSK = CSK (UniProt P41240)
# CSNK1A1 = CSNK1A1 (UniProt P48729)
# CSNK1D = CSNK1D (UniProt P48730)
# DDR1 = DDR1 (UniProt Q08345)
# DYRK1B = DYRK1B (UniProt Q9Y463)
# DYRK2 = DYRK2 (UniProt Q92630)
# EGFR = EGFR (UniProt P00533)
# EGFR_G719S = EGFR_G719S (UniProt P00533)
# EGFR_G719S_T790M = EGFR_G719S_T790M (UniProt P00533)
# EGFR_L718V = EGFR_L718V (UniProt P00533)
# EGFR_L858R = EGFR_L858R (UniProt P00533)
# EGFR_L861Q = EGFR_L861Q (UniProt P00533)
# EGFR_T790M = EGFR_T790M (UniProt P00533)
# EPHA2 = EPHA2 (UniProt P29317)
# ERBB3 = ERBB3 (UniProt P21860)
# [1] = target: ERBB4_R711C (clone: ERBB4_mut) (UniProt Q15303)
SMILES,kinase-Nluc reporter destabilization hit call (CDK7),kinase-Nluc reporter destabilization hit call (CDK9),kinase-Nluc reporter destabilization hit call (CHEK2),kinase-Nluc reporter destabilization hit call (CSF1R),kinase-Nluc reporter destabilization hit call (CSK),kinase-Nluc reporter destabilization hit call (CSNK1A1),kinase-Nluc reporter destabilization hit call (CSNK1D),kinase-Nluc reporter destabilization hit call (DDR1),kinase-Nluc reporter destabilization hit call (DYRK1B),kinase-Nluc reporter destabilization hit call (DYRK2),kinase-Nluc reporter destabilization hit call (EGFR),kinase-Nluc reporter destabilization hit call (EGFR_G719S),kinase-Nluc reporter destabilization hit call (EGFR_G719S_T790M),kinase-Nluc reporter destabilization hit call (EGFR_L718V),kinase-Nluc reporter destabilization hit call (EGFR_L858R),kinase-Nluc reporter destabilization hit call (EGFR_L861Q),kinase-Nluc reporter destabilization hit call (EGFR_T790M),kinase-Nluc reporter destabilization hit call (EPHA2),kinase-Nluc reporter destabilization hit call (ERBB3),kinase-Nluc reporter destabilization hit call [1]
C[C@H](CCC(=O)O)C[C@H](C)C[C@H](C)C(=O)/C=C(\O)[C@H](C)C[C@H](C)C/C=C/[C@@H](C)[C@@H](O)[C@@H](C)[C@@H](O)C[C@@H]1CC[C@@](C)([C@H]2CC[C@@](C)([C@@H](C)O)O2)O1 [Ionomycin (calcium)] (2.5 µM),inactive: 0,inactive: 0,inactive: 0,inactive: 0,inactive: 0,inactive: 0,inactive: 0,inactive: 0,inactive: 0,inactive: 0,inactive: 0,inactive: 0,inactive: 0,inactive: 0,inactive: 0,inactive: 0,inactive: 0,active: 1,inactive: 0,inactive: 0
C[C@@H]1CC[C@H]2[C@@H](C)C(=O)O[C@@H]3O[C@@]4(C)CC[C@@H]1[C@]32OO4 [Artemisinin] (10 µM),inactive: 0,inactive: 0,inactive: 0,inactive: 0,inactive: 0,inactive: 0,inactive: 0,inactive: 0,inactive: 0,inactive: 0,inactive: 0,inactive: 0,inactive: 0,inactive: 0,inactive: 0,inactive: 0,inactive: 0,inactive: 0,inactive: 0,inactive: 0
CCCS(=O)(=O)Nc1ccc(F)c(-n2cc(-c3cncnc3)c3nc(N(C)C4CCN(CC)CC4)ccc32)c1F (2 µM),inactive: 0,inactive: 0,inactive: 0,inactive: 0,inactive: 0,inactive: 0,inactive: 0,inactive: 0,inactive: 0,inactive: 0,inactive: 0,inactive: 0,inactive: 0,inactive: 0,inactive: 0,inactive: 0,inactive: 0,inactive: 0,inactive: 0,inactive: 0
N#CC(C#N)=Cc1ccc(O)c(O)c1 [Tyrphostin 23] (10 µM),inactive: 0,inactive: 0,inactive: 0,inactive: 0,inactive: 0,inactive: 0,inactive: 0,inactive: 0,inactive: 0,inactive: 0,–,–,–,–,–,–,–,inactive: 0,inactive: 0,inactive: 0
O=[N+]([O-])/C=C/c1ccc2c(c1)OCO2 (2.5 µM),inactive: 0,inactive: 0,inactive: 0,inactive: 0,inactive: 0,inactive: 0,inactive: 0,inactive: 0,inactive: 0,inactive: 0,inactive: 0,inactive: 0,inactive: 0,inactive: 0,inactive: 0,inactive: 0,inactive: 0,inactive: 0,inactive: 0,inactive: 0
COc1ccc2c(c[n+](C)c3c4cc5c(cc4ccc23)OCO5)c1OC [Chelerythrine (chloride)] (10 µM),inactive: 0,inactive: 0,inactive: 0,inactive: 0,inactive: 0,inactive: 0,inactive: 0,inactive: 0,inactive: 0,inactive: 0,inactive: 0,inactive: 0,inactive: 0,inactive: 0,inactive: 0,inactive: 0,inactive: 0,inactive: 0,inactive: 0,inactive: 0
Cn1cc(C2=C(c3cn(C4CCN(Cc5ccccn5)CC4)c4ccccc34)C(=O)NC2=O)c2ccccc21 [Enzastaurin] (10 µM),inactive: 0,inactive: 0,inactive: 0,inactive: 0,inactive: 0,inactive: 0,inactive: 0,inactive: 0,inactive: 0,inactive: 0,inactive: 0,inactive: 0,inactive: 0,inactive: 0,inactive: 0,inactive: 0,inactive: 0,inactive: 0,inactive: 0,inactive: 0
CC(=O)c1c(O)c(C)c(O)c(Cc2c(O)c3c(c(C(=O)/C=C/c4ccccc4)c2O)OC(C)(C)C=C3)c1O [Rottlerin] (2 µM),inactive: 0,inactive: 0,inactive: 0,inactive: 0,inactive: 0,inactive: 0,inactive: 0,inactive: 0,inactive: 0,inactive: 0,inactive: 0,inactive: 0,inactive: 0,inactive: 0,inactive: 0,inactive: 0,inactive: 0,inactive: 0,inactive: 0,inactive: 0
O=c1cc(O)c2ccccc2o1 [4-Hydroxycoumarin] (10 µM),inactive: 0,inactive: 0,inactive: 0,inactive: 0,inactive: 0,inactive: 0,inactive: 0,inactive: 0,inactive: 0,inactive: 0,inactive: 0,inactive: 0,inactive: 0,inactive: 0,inactive: 0,inactive: 0,inactive: 0,inactive: 0,inactive: 0,inactive: 0
C[C@H]1CC[C@]2(NC1)O[C@H]1C[C@H]3[C@@H]4CC[C@H]5C[C@@H](O[C@@H]6O[C@H](CO)[C@H](O[C@@H]7O[C@H](CO)[C@@H](O)[C@H](O[C@@H]8OC[C@@H](O)[C@H](O)[C@H]8O)[C@H]7O[C@@H]7O[C@H](CO)[C@@H](O)[C@H](O)[C@H]7O)[C@H](O)[C@H]6O)CC[C@]5(C)[C@H]4CC[C@]3(C)[C@H]1[C@@H]2C [Tomatine] (2.5 µM),inactive: 0,inactive: 0,inactive: 0,active: 1,inactive: 0,inactive: 0,inactive: 0,inactive: 0,inactive: 0,inactive: 0,inactive: 0,inactive: 0,inactive: 0,inactive: 0,inactive: 0,inactive: 0,inactive: 0,inactive: 0,inactive: 0,inactive: 0
COc1cc2c(cc1F)C(c1ccccc1Cl)=Nc1c(n[nH]c1C)N2 (0.5 µM),inactive: 0,inactive: 0,inactive: 0,inactive: 0,inactive: 0,inactive: 0,inactive: 0,inactive: 0,inactive: 0,inactive: 0,–,–,–,–,–,–,–,inactive: 0,inactive: 0,inactive: 0

# From the supplement of paper PMC12823440, “Inhibitors supercharge kinase turnover through native proteolytic circuits” (Nature, 2025)
